{"source": "paper PMC3197605", "about": "“Expression, Purification and Characterization of Arginase from Helicobacter pylori in Its Apo Form” (PLoS ONE, 2011)", "biological_target": "Helicobacter pylori arginase RocF, apo form (Helicobacter pylori strain 26695) (UniProt O25949)", "assay": "SEC; Superdex 200 10/300GL, 20 mM Tris-HCl pH 7.5, 150 mM NaCl; oligomeric state from the position of the peak; both purified", "note": "No constants are given. Whether binding was seen depends on the method and setting."}
{"binder": "Helicobacter pylori arginase RocF, apo form (enzyme, UniProt O25949 1-322) MILVGLEAELGASKRGTDKGVRRLREALSATHGDVIKGMQTITQERCVLYKEFRYAKNFEDYYLFCKENLIPCMKEVFEKKEFPLILSSEHANMFGIFQAFRSVHKDKKIGILYLDAHADIHTAYDSDSKHIHGMPLGMVLNRVRSGFNRMSESEEKAWQKLCSLGLEKGGLEIDPKCLVYFGVRSTEQSERDVIRELQIPLFSVDAIRENMQEVVQKTKESLKAVDIIYLSLDLDIMDGKLFTSTGVRENNGLSFDELKQLLGLLLESFKDRLKAVEVTEYNPTVSIKHNNEEEKQVLEILDLIINSCKIKDKKHSFARSY", "values": [{"measurement": "binding", "result": "no binding"}]}
